# According to patent publication US4426453A, “Derivatives of iodothyronine compounds and their use in an assay for the free iodothyronine compounds” (Amersham International Limited, priority 1980, dated 1984):
# Tests used:
# [1] = Independence of measured free-T4 concentration from serum dilution with the tracer; parameters: species or system human; conditions: qualitative; 125I-labelled derivative as tracer
# [2] = Binding to polystyrene assay tubes; conditions: qualitative
smiles,measurement,setting,value
"COC(=O)[C@H](Cc1cc(I)c(Oc2cc(I)c(O)c(I)c2)c(I)c1)NC(C)=O [N-Acetyl-thyroxine-methyl ester, N-acetyl-thyroxine-methyl ester, reference compound]",free-T4 concentration unaffected by dilution of serum sample,[1],only approximately true
"O=C(O)CN(CCN(CC(=O)O)CC(=O)NC(Cc1cc(I)c(Oc2cc(I)c(O)c(I)c2)c(I)c1)C(=O)O)CC(=O)O (stereo not drawn) [T4.EDTA, 1-{3',5'-di-iodo-4'(3"",5""-di-iodo-4""-Hydroxyphenoxy)phenyl}2-carboxy-6,9-dicarboxymethyl-4-oxo-3,6,9-triazaundecan-11-oic acid]",binding to assay tubes,[2],shows no significant tendency to bind to assay tubes
same,free-T4 concentration unaffected by dilution of serum sample,[1],much more accurately true
